Experimental data from article PMC10591015.

Protein sequences, listed by entry. Tags and fused reporters are not part of them. Lines headed by an entry give the natural chain unless they say otherwise; changes in a name come on top. Chains listed by the source or under a name are the forms on record and can include a tag or linker.
C-terminal APEX2-tagged NELFB WT (Q8C4Y3, form named): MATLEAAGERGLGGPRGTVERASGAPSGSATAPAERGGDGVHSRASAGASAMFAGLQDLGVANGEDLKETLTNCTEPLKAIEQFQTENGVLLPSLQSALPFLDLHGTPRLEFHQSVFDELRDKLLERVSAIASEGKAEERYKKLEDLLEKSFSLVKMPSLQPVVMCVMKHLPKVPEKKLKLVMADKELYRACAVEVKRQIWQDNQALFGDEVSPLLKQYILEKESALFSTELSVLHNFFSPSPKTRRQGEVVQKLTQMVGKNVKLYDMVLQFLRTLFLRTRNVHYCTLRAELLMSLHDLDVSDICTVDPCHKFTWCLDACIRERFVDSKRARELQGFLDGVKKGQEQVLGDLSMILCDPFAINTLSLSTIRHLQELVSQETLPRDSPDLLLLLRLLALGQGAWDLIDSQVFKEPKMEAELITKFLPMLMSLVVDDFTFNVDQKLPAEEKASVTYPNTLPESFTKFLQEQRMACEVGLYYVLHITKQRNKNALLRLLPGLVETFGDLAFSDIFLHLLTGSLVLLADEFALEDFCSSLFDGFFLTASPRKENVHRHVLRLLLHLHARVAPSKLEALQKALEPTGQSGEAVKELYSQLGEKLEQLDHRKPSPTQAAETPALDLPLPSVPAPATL
UniProt P42337: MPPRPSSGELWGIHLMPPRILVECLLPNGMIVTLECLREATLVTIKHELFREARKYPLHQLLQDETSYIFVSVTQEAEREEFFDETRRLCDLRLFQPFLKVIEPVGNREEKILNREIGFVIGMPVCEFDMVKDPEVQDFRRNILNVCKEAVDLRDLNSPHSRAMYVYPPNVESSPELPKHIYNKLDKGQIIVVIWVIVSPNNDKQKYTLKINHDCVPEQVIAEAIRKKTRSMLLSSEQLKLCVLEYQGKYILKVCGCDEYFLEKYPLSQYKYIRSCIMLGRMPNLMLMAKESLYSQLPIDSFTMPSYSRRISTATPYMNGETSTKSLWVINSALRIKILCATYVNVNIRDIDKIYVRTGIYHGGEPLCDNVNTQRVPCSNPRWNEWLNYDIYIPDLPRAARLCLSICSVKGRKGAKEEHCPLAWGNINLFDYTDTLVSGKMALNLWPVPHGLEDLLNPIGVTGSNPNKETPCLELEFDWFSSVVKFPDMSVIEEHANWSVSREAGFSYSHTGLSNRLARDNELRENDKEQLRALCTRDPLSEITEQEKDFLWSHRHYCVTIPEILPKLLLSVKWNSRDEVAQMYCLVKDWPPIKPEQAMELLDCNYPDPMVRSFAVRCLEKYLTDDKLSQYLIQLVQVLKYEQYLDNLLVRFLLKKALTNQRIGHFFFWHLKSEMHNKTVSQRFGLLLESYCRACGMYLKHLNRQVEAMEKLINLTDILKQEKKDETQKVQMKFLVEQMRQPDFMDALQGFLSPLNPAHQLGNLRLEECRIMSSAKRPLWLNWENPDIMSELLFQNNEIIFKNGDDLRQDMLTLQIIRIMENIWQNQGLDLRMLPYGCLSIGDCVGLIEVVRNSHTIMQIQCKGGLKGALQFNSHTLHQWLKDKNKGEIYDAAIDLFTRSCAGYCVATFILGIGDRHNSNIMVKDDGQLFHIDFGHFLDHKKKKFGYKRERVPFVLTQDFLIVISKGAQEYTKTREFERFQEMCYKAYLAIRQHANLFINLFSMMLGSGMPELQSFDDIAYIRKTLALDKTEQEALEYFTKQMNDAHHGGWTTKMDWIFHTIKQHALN

Target: C-terminal APEX2-tagged NELFB WT (mouse) (UniProt Q8C4Y3)
Assay: proximity labelling; stable MEF lines with C-terminal APEX2-tagged NELFB (WT, MT144, MT194); NELFB-AID degraded by IAA before labelling; biotin-phenol 30 min, 1 mM H2O2 1 min; streptavidin bead pull-down of the lysate, Western blotting; control cells without H2O2

**Q.** “PI3Kα (PI3 Kinase p110α) (from UniProt P42337 1-1068) (enzyme)” was tested. Which binding did it give?
**A.** binds

No constants are given. Whether binding was seen depends on the method and setting. In cells and extracts the contact can be indirect. A yes stands for co-enrichment or nearness to the bait. Other partners may have been found.
